Results on 1 substance are retold here after paper PMC4039144.

Chains of the proteins cited; added tags and fusions are not shown.
UniProt P40763: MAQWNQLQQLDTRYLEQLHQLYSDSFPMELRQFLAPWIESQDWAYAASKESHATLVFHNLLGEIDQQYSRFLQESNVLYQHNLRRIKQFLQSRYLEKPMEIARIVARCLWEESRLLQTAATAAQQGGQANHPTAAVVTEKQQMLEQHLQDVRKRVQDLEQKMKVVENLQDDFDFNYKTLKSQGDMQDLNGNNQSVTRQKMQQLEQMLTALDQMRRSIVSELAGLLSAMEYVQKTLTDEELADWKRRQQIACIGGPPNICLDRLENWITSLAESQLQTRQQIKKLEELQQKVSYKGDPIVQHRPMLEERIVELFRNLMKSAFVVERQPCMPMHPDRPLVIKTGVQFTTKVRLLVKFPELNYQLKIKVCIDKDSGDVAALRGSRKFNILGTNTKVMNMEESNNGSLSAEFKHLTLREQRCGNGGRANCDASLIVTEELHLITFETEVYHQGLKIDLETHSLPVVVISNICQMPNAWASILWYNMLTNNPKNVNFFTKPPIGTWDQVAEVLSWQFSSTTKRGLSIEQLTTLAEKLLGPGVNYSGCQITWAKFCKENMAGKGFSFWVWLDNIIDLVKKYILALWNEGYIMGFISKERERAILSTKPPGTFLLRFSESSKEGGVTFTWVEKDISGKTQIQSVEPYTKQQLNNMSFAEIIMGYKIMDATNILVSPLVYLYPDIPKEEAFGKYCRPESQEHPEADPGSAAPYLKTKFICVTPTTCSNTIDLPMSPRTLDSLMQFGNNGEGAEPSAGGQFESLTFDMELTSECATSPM
UniProt P14902: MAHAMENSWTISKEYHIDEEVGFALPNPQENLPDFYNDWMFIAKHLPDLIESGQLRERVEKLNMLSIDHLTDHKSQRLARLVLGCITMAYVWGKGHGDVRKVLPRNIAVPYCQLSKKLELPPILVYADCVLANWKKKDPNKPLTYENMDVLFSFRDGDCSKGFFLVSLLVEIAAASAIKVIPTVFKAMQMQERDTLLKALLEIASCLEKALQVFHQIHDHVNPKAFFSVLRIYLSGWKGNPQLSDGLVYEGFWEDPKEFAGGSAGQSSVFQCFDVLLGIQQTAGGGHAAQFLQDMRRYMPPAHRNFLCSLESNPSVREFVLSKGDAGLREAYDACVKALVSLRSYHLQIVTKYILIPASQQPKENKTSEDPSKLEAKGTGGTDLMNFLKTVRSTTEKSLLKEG

This experiment deals with signal transducer and activator of transcription 3 (STAT3) (human (endogenous in primary AML blasts)) (UniProt P40763). Description: co-IP; lysates (2 mg/sample) of primary AML blasts after 100 ng/ml IFN-γ for 16 hours, or without IFN-γ; Co-IP buffer with 137 mM NaCl, 1% NP-40, 20 mM Tris-HCl pH 8, 10% glycerol; anti-STAT3 or anti-IDO1 antibodies on Protein A resin, 4 hours at 4°C; immunoblot with the other antibody; normal rabbit IgG as negative control. A general note: In western blotting, separated proteins are transferred to a membrane and probed.

No constants are given. Whether binding was seen depends on the method and setting. Binding seen in cells or lysates may run through a third protein. Some binding calls cover weakened binding; strength is not graded here.

In the case of “Indoleamine 2,3-dioxygenase 1 (IDO1) (from UniProt P14902 1-403) (enzyme)”, the binding entry is on record as “binds”.
